Laboratory results: PubChem BioAssay AID504444 (National Center for Advancing Translational Sciences (NCATS), 2011)
About 7,500 (2.1%) of roughly 360,000 compounds were called active. This list was built around the results that the source calls inconclusive (neither active nor inactive); the mix of calls is not that of the screen. Calls follow the shape of the dose curve; as a rule, active = well fitted inhibition curve with a large enough effect; inconclusive = small, poorly fitted or top-dose-only effect, or effect the other way; inactive = flat fitted curve, though single readings scatter. A potency beside an inconclusive call is a rough fit, not a confirmed value.

Assay: Nrf2 qHTS screen for inhibitors; also: nearly all actives have a fitted effect of over 60% in size
Details: A549 ARE-Fluc reporter, luciferase luminescence, 18-24 h; activity change, negative = inhibition: at 46 µM (top of the series)
In short: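 In this cell-based qHTS, ARE-driven firefly luciferase in A549 cells reports Nrf2 activity; the luminescent signal after BugLite lysis is the measured value, with a prior CellTiter-Fluor read for cell health.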
% is scaled to controls: 0 for no effect and ±100 for the full control effect; potency is read from the fitted curve at half-maximal effect.

Row | Compound | Potency | activity change, negative = inhibition
1 | Cc1cc(C)nc(Nc2nc3ccccc3s2)n1 | inconclusive: 9.2 µM [activator, partial curve] | –
2 | COc1ccc(CCNC(=O)C(=O)NCC2OCCCN2S(=O)(=O)c2cc(C)ccc2C)cc1 (stereo unspecified) | inconclusive: 29.1 µM [falling, single point] | –
3 | CCC(C)N(CC(=O)Nc1cccc(C)c1C)C(=O)CCl (stereo unspecified) | inconclusive: 7.31 µM [falling, single point] | –
4 | COc1cccc(NC(=O)Cn2c3ccc(F)cc3c3nc4n(c(=O)c32)CCCS4)c1 | inconclusive: 5.17 µM [falling, partial curve, poor fit] | –
5 | C=CCn1c(C)c(C(C)=O)cc(NC(=O)c2ccccc2)c1=O | – | inactive: -16.7%
6 | Nc1nonc1-n1nnc(C(=O)N/N=C/c2cccc(Cl)c2)c1-c1cccs1 | inconclusive: 11.6 µM [falling, partial curve, poor fit] | –
7 | CC(C)NS(=O)(=O)c1ccc(CCC(=O)N2CCc3ccccc3C2)cc1 | inconclusive: 10.3 µM [falling, partial curve, poor fit] | –
8 | COCCn1c(SCC(=O)c2ccccc2)nc2c(c1=O)SC(C)C2 (stereo unspecified) | inconclusive: 5.17 µM [activator, single point] | –
9 | Cc1ccc(C2=CSC3=NNC4(CCCCC4)NN23)cc1 | inconclusive: 29.1 µM [activator, single point] | –
10 | CC1(C)CC2CC(C)(CN2C(=O)COC(=O)c2ccccc2C(F)(F)F)C1 (stereo unspecified) | active: 3.66 µM | –
11 | O=C1CCc2cc(S(=O)(=O)Nc3cccc(C(F)(F)F)c3)ccc2N1 | inconclusive: 16.4 µM [falling, partial curve] | –
12 | COc1ccc(C2NCCc3sccc32)cc1 (stereo unspecified) | inconclusive: 20.6 µM [activator, partial curve] | –
13 | CCOc1ccc(C(=O)Nc2cccc(-c3cc4ccccc4oc3=O)c2)cc1[N+](=O)[O-] | inconclusive: 10.3 µM [falling, partial curve] | –
14 | O=C(Nn1cnc2ccccc2c1=O)c1ccccc1 | inconclusive: 29.1 µM [activator, single point] | –
15 | CC(/C=C/c1ccco1)=N\NC(=O)c1cccc(Cl)c1 | – | inactive: 8.79%
16 | CCOc1ccc(NC(=O)CN2C(=O)CCSc3ccc(S(=O)(=O)N4CCCC4)cc32)cc1 | inconclusive: 10.3 µM [falling, partial curve, poor fit] | –
17 | C/C(=N\NC(=O)C12CCC(C)(C(=O)O1)C2(C)C)c1ccccc1O (stereo unspecified) | inconclusive: 29.1 µM [falling, single point] | –
18 | O=C(N/N=C/c1cccs1)c1cncc(Br)c1 | inconclusive: 5.17 µM [activator, full curve] | –
19 | N#Cc1ccsc1NC(=O)COC(=O)c1ccc2ccccc2c1 | inconclusive: 2.06 µM [activator, full curve] | –
20 | CC(C)c1ccc(NC(=O)c2ccccc2NC(=O)C2CC=CCC2C(=O)O)cc1 (stereo unspecified) | inconclusive: 23.1 µM [activator, partial curve, poor fit] | –
21 | CC1(C)CC(=O)C(C(c2ccc(Br)cc2)C2C(=O)CC(C)(C)CC2=O)C(=O)C1 | – | inactive: -18.9%

Row | Compound | Potency | activity change, negative = inhibition
22 | CC1CN(C(=O)Nc2ccc3c(c2)OCCO3)CC(C)O1 (stereo unspecified) | – | inactive: 25.7%
23 | C=C(C)COc1ccc(-c2n[nH]c(C)c2-c2ccc(OC)cc2)c(O)c1 | inconclusive: 20.6 µM [falling, single point] | –
24 | Cc1ccc(CCNC(=O)C2CCN(S(=O)(=O)c3ccc4c(c3)NC(=O)C(C)S4)CC2)cc1 (stereo unspecified) | active: 16.4 µM | –
25 | O=C(OCC(=O)N1CCCCC1)c1cccs1 | inconclusive: 29.1 µM [activator, single point] | –
26 | Cc1cc(-c2nnnn2-c2ccc(F)cc2)no1 | inconclusive: 2.59 µM [falling, full curve] | –
27 | O=C(CCc1nnc(CCc2c[nH]c3ccccc23)o1)NC1CCC1 | inconclusive: 11.6 µM [activator, partial curve] | –
28 | COc1ccc(N2CCN(S(=O)(=O)c3cc(-c4cc(C)no4)ccc3C(C)C)CC2)cc1 | inconclusive: 5.17 µM [falling, single point] | –
29 | CCc1ccccc1NC(=O)CSc1nc2c(oc3ccccc32)c(=O)n1-c1ccccc1 | inconclusive: 3.66 µM [falling, partial curve, poor fit] | –
30 | CCc1nc2oc3cc(OC)ccc3c(=O)c2c(=O)n1-c1ccccc1 | inconclusive: 32.6 µM [activator, single point] | –
31 | C/C(=N/NC(=O)c1ccc2c(c1)OCO2)c1ccc(Br)s1 | inconclusive: 29.1 µM [activator, single point] | –
32 | CC1CCCN(C(=O)C(Cc2ccccc2)n2cccc2)C1 (stereo unspecified) | inconclusive: 13 µM [falling, partial curve, poor fit] | –
33 | Cc1ccc(S(=O)(=O)N2C[C@@H]3CCCC[C@@H]3[C@@H](C)[C@H]2c2cn(Cc3ccccc3)c3ncccc23)cc1 | active: 5.17 µM | –
34 | Cc1c2cnn(CC(=O)NCCc3ccccc3)c(=O)c2c(C)n1Cc1ccccc1Cl | inconclusive: 32.6 µM [falling, partial curve, poor fit] | –
35 | CCC1CCCCN1CCCNC(=O)c1ccc2c(c1)N(Cc1cccc(C)c1)C(=O)c1ccccc1S2(=O)=O (stereo unspecified) | inconclusive: 16.4 µM [activator, partial curve, poor fit] | –
36 | CC(C)(C)NC(=O)Cn1c(SCC(=O)N2CCCCCC2)nc2ccccc21 | inconclusive: 23.1 µM [falling, single point] | –
37 | COc1ccc(/C=N/NC(=O)Cc2csc(Nc3cccc(C(F)(F)F)c3)n2)c(OC)c1 | inconclusive: 29.1 µM [falling, single point] | –
38 | COc1ccc(C2CC(=O)c3cnc(Nc4cc(C)cc(C)c4)nc3C2)cc1 (stereo unspecified) | inconclusive: 16.4 µM [falling, single point] | –
39 | COCc1[nH]nc2c1C(c1ccc(OC)c(OC)c1)C(C#N)=C(N)O2 (stereo unspecified) | – | inactive: -21.5%
40 | O=C(/C=C/Nc1ccc(F)cc1)c1cccs1 | inconclusive: 9.2 µM [activator, partial curve] | –
41 | COc1ccc(NS(=O)(=O)c2ccc(SC)cc2)cc1 | inconclusive: 25.9 µM [falling, partial curve, poor fit] | –

Arranged by molar mass (ascending): three of the compounds above
Row | Compound | Potency | activity change, negative = inhibition
30 | CCc1nc2oc3cc(OC)ccc3c(=O)c2c(=O)n1-c1ccccc1 | inconclusive: 32.6 µM [activator, single point] | –
34 | Cc1c2cnn(CC(=O)NCCc3ccccc3)c(=O)c2c(C)n1Cc1ccccc1Cl | inconclusive: 32.6 µM [falling, partial curve, poor fit] | –
29 | CCc1ccccc1NC(=O)CSc1nc2c(oc3ccccc32)c(=O)n1-c1ccccc1 | inconclusive: 3.66 µM [falling, partial curve, poor fit] | –
